{"source": "patent US7846902B2", "about": "“Dipeptide-comprising composition for oral administration” (Kyowa Hakko Bio Co., Ltd., priority 2005, dated 2010)", "note": "Peptide text beside a SMILES is read from it."}
{"experiment": "Taste sensory evaluation of the substances by panelists (Test Example 2)", "design": "key: x: Taste bitter; ∘: Do not taste bitter", "details": "panelists 3 males and 3 females, blinded"}
{"smiles": "CC[C@H](C)[C@H](NC(=O)[C@H](C)N)C(=O)O", "note": "[Alanyl-Isoleucine, alanyl-isoleucine] (H-Ala-Ile-OH)", "Sensory Awareness": "∘"}
{"smiles": "CC(C)C[C@H](NC(=O)[C@H](C)N)C(=O)O", "note": "[Alanyl-Leucine, alanyl-leucine] (H-Ala-Leu-OH)", "Sensory Awareness": "∘"}
{"smiles": "CC(C)[C@H](NC(=O)[C@H](C)N)C(=O)O", "note": "[Alanyl-Valine, alanyl-valine] (H-Ala-Val-OH)", "Sensory Awareness": "∘"}
{"smiles": "CC[C@H](C)[C@H](N)C(=O)O", "note": "[Isoleucine, isoleucine, reference compound]", "Sensory Awareness": "x"}
{"smiles": "CC(C)[C@H](N)C(=O)O", "note": "[Valine, valine, reference compound]", "Sensory Awareness": "x"}
